# Measured values: publication PMC4582193
# These are yes or no findings as the source states them, for the method shown. Binding seen in cells or lysates may run through a third protein. Binding can be weak; no strength is given. Where a sequence is shown, tags or fusion partners need not be part of it.
# Molecular target: T1, Myc-tagged Cep85 (human) (UniProt Q6P2H3)
# T1 sequence: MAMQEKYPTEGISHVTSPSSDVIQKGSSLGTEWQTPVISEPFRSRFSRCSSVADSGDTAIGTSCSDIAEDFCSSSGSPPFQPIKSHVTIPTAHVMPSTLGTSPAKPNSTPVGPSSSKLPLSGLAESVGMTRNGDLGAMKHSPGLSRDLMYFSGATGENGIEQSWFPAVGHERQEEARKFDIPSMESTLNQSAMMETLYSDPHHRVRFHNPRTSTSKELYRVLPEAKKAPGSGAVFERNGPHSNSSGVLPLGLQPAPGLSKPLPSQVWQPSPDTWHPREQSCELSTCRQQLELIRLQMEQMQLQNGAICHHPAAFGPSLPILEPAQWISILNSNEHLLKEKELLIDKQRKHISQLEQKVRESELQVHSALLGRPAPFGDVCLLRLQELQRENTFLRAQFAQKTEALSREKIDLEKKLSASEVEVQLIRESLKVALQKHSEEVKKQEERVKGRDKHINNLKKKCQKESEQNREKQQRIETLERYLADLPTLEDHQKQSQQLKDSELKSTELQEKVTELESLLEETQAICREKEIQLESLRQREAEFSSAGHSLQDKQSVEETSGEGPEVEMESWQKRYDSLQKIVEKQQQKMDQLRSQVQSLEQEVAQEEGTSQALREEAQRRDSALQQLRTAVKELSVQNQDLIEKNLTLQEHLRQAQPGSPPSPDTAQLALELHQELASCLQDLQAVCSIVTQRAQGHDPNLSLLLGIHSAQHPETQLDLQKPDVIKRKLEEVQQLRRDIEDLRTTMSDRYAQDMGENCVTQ
# Assay: co-IP; Myc–Cep85 constructs and HA–Nek2A constructs co-expressed in HEK293T cells; lysis in 50 mM Tris-HCl pH 7.4, 150 mM NaCl, 1 mM EDTA, 0.5% NP-40; antibody 2 h at 4°C, Protein A/G PLUS-Agarose; western blotting
row,binding,Substance
1,no binding,HA–Nek2A truncated mutant D1 (N-terminal region) (human (cloned from HEK293T)) (domain or fragment)
2,binds,HA–Nek2A truncated mutant D2 (C-terminal region) (human (cloned from HEK293T)) (domain or fragment)
